Source: paper doi:10.1101/2020.07.23.217679
Results are given in words; binding and its absence hold for the method and conditions named. A result given as binding can be weak or reduced; the word gives no strength.

Molecular target: T1, PAR-6 PDZ domain (C. elegans) (UniProt Q9NAN2)
T1 sequence: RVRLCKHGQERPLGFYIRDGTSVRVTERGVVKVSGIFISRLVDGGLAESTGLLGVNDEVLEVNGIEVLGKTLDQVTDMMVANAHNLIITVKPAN
Assay: two-hybrid

- binding: binds
Substance: NOCA-1d, full-length (from UniProt G5EEK3-4)
